Source: US5665515A, “Method for obtaining a printing plate according to the silver salt diffusion transfer process” (Agfa-Gevaert N.V., priority 1994, dated 1997)

Tests used:
[1] = ink acceptance of DTR printing plate treated with stabilising liquid containing the mercapto-compound (offset press GTO 46); details: number of copies disposed of before satisfactory print, amount (mmol/l): C 2, 6 2.4, 2 1.5, 2/6 2.4/1.5, 3 0.9, 4 2.7
Description: (§1) Preparation of the silver halide emulsion coating solution.
(§2) A silver chlorobromide emulsion composed of 98.2 mole % of chloride and 1.8 mole % of bromide was prepared by the double jet precipitation method. The average silver halide grain size was 0.4 μm (diameter of a sphere with equivalent volume) and contained Rhodium ions as internal dopant. The emulsion was orthochromatically sensitized and stabilized by 1-phenyl-5-mercaptotetrazole and a compound of the following formula: [drawing 16]
(§3) The emulsion coating solution and base layer coating solution were simultaneously coated by means of the cascade coating technique to a polyethylene terephthalate support provided with a pack of two backing layers such that the base layer coating was coated directly to the side of the support opposite to the side containing said backing layers. The emulsion layer was coated such that the silver halide coverage expressed as AgNO3 was 1.5 g/m^2 and the gelatin content was 1.5 g/m^2. The emulsion layer further contained 0.15 g/m^2 of 1-phenyl-4-methyl-3-pyrazolidone and 0.25 g/m^2 of hydroquinone. The base layer was coated such that the amount of gelatin in the coated layer was 3 g/m^2.
(§4) The thus obtained element was dried and subjected to a temperature of 40° C. for 5 days and then the emulsion layer was overcoated with a layer containing PdS as physical development nuclei, hydroquinone at 0.4 g/m^2 and formaldehyde at 100 mg/m^2.
(§5) Imaging elements prepared as described above were image-wise exposed using a camera and were subsequently developed by guiding the imaging element through the above transfer developer in 20s, 13s or 5s at a temperature of 30° C. The obtained plates were subsequently stabilised using the above stabilising liquid.
The obtained printing plates were then mounted on an offset press GTO 46 running a K+E 125 ink and a fountain liquid containing 5% of G648 (commercially available from Agfa-Gevaert NV) and 15% of isopropanol. The results obtained were as follows:
*the ink acceptance is evaluated as the number of copies that have to be
disposed of before a satisfactory print is obtained.

[2] = printing endurance of DTR printing plate treated with stabilising liquid containing the mercapto-compound (offset press GTO 46); details: amount (mmol/l): C 2, 6 2.4, 2 1.5, 2/6 2.4/1.5, 3 0.9, 4 2.7; for printing endurance, fresh: fresh plate; for printing endurance, 7 days: plate stored 7 days
Description: as §1, §2, §3, §4, §5
The obtained printing plates were then mounted on an offset press GTO 46 running a K+E 125 ink and a fountain liquid containing 5% of G648 (commercially available from Agfa-Gevaert NV) and 15% of isopropanol.

CCCCN(CCCC)C(=O)Cn1nnnc1S [compound 2]
> 10000: printing endurance, fresh ([2]; developing time 5 s) | printing endurance, fresh ([2]; developing time 13 s) | printing endurance, 7 days ([2]; developing time 5 s) | printing endurance, 7 days ([2]; developing time 13 s)
< 25 copies: ink accept. ([1]; developing time 5 s) | ink accept. ([1]; developing time 13 s)

CCCCCCn1nnnc1S [compound 3]
> 10000: printing endurance, fresh ([2]; developing time 5 s) | printing endurance, fresh ([2]; developing time 13 s) | printing endurance, 7 days ([2]; developing time 5 s) | printing endurance, 7 days ([2]; developing time 13 s)
< 25 copies: ink accept. ([1]; developing time 5 s) | ink accept. ([1]; developing time 13 s)

CCCCCCCCn1nnnc1S [compound 4]
< 25 copies: ink accept. ([1]; developing time 5 s) | ink accept. ([1]; developing time 13 s)
> 10000: printing endurance, fresh ([2]; developing time 5 s) | printing endurance, fresh ([2]; developing time 13 s) | printing endurance, 7 days ([2]; developing time 5 s) | printing endurance, 7 days ([2]; developing time 13 s)

Sc1nnnn1-c1ccccc1 [compound 6]
25-35 copies: ink accept. ([1]; developing time 5 s) | ink accept. ([1]; developing time 13 s)
> 10000: printing endurance, fresh ([2]; developing time 5 s) | printing endurance, fresh ([2]; developing time 13 s) | printing endurance, 7 days ([2]; developing time 5 s) | printing endurance, 7 days ([2]; developing time 13 s)

CCCCCCCc1nnc(S)o1 [mercaptocompound C, 2mercapto-5-n.heptyl oxa3,4-diazole, reference compound]
> 10000: printing endurance, fresh ([2]; developing time 5 s) | printing endurance, fresh ([2]; developing time 13 s) | printing endurance, 7 days ([2]; developing time 5 s) | printing endurance, 7 days ([2]; developing time 13 s)
25-50 copies: ink accept. ([1]; developing time 5 s) | ink accept. ([1]; developing time 13 s)
